{
  "source": "patent US20220387556A1",
  "about": "“USE OF THE GDF-5 MUTANT FOR THE TREATMENT OF PAIN AND CARTILAGE DESTRUCTION” (Merck Patent GmbH, priority 2019, published 2022)",
  "system": "primary human meniscus cells",
  "test": "NGF stimulated PGE2 release in primary human meniscus cells",
  "type": "cell-based",
  "conditions": "10 ng/ml rhNGF, 2 days; 0.1 μM Dexamethasone, 0.1 μM Triamcinolone, 375 ng/ml anti-betaNGF antibody, 300 ng/ml R399E",
  "protocol": "Primary meniscus cells from total knee replacement surgeries were freshly prepared one day post-surgery within the frame of an ethical permission. First, skin and muscle were removed to isolate the menisci. The menisci were transferred into a 10 cm dish filled with HAM's F12+1% P/S+1% Amphotericin B. The tissue was cut into small pieces of approximately 3×3 mm and transferred into a sterile beaker for digestion. Digestion was performed for 16 h in 50 ml of a 0.4% Collagenase in HAM's F12+1% P/S+1% Amphotericin solution at 37° C., 7.5% CO2 under constant stirring. After 16 h the solution was pipetted through a 100 μm filter followed by a 40 μm filter and then centrifuged for 5 min at 1400 g. The remaining pellet, containing the cells was resuspended in 20 ml of HAM's F12+1% P/S+1% Amphotericin+10% FCS. Cell number was counted, and cell viability was determined. Finally, 10,000 cells per well were seeded in a 96 well plate. Cells were cultivated up to 1 week to reach confluency. In between medium was exchanged once. […] The effect of the individual compounds was compared to cells which were stimulated with rhNGF only. After 2 days incubation, the supernatant was removed for determination of Prostaglandin E2 (PGE2) in the medium.",
  "note": "At least one structure is not confirmed: it was looked up by name or label, or the drawing left a doubt.",
  "data": [
    {"smiles": "C[C@@H]1C[C@H]2[C@@H]3CCC4=CC(=O)C=C[C@]4(C)[C@@]3(F)[C@@H](O)C[C@]2(C)[C@@]1(O)C(=O)CO", "note": "[Dexamethasone]", "values": [
      {"measurement": "rhNGF induced PGE2 in the medium", "value": "significantly inhibited"}
    ]}
  ]
}
